{
  "source": "patent US9598714",
  "about": "(dated 2017)",
  "note": "Square brackets hold non-standard residues; d marks the D form. * marks the point of attachment. Gln(Trt) = N[C@@H](CCC(=O)NC(c1ccccc1)(c1ccccc1)c1ccccc1)C(=O)O; Pbf = Cc1c(C)c(S(=O)(=O)*)c(C)c2c1OC(C)(C)C2; Boc = CC(C)(C)OC(=O)*; OtBu = CC(C)(C)O*; tBu = CC(C)(C)*",
  "data": [
    {"assay": "general procedure: peptide synthesis; Sieber resin (Xanthenyl linker, 0.5 mmol/gram); 2-chlorotrityl resin (1.0 mmol/gram); HBTU/HOBt/DiPEA; Alcalase-CLEA-OM for fragment condensation", "settings": "coupling step", "units": {"step yield": "%"}, "values": [
      {"substance": "Ac-D(OtBu)LS(tBu)K(Boc)[Gln(Trt)]ME(OtBu)E(OtBu)E(OtBu)A-NH2", "step yield": 86},
      {"substance": "Ac-D(OtBu)LS(tBu)K(Boc)QME(OtBu)E(OtBu)E(OtBu)A-NH2", "step yield": 100},
      {"substance": "Ac-LD(OtBu)[Gln(Trt)]S(tBu)QFVGS(tBu)R(Pbf)-NH2", "step yield": 86},
      {"substance": "Ac-T(tBu)S(tBu)D(OtBu)LS(tBu)K(Boc)QME(OtBu)E(OtBu)E(OtBu)A-NH2", "step yield": 98},
      {"substance": "Ac-Thr(tBu)-Phe-Thr(tBu)-Ser(tBu)-Asp(OtBu)-Leu-Ser(tBu)-Lys(Boc)-Gln-Met-Glu(OtBu)-Glu(OtBu)-Glu(OtBu)-Ala-NH2", "step yield": 78}
    ]}
  ]
}
